Data from patent publication US11141413B2, “Method of treating renal cell carcinoma using N-(4-(6,7-dimethoxyquinolin-4-yloxy)phenyl)-N′-(4-fluorophenyl)cyclopropane-1,1-dicarboxamide, (2S)-hydroxybutanedioate” (Exelixis, Inc., priority 2016, dated 2021).

System: patients with advanced renal cell carcinoma
Experiment: METEOR (Study 1) safety: adverse reactions, laboratory abnormalities, dose modifications

Structure (SMILES)	Median average daily dose (Asia Pacific)	Median duration of exposure (Asia Pacific)	Median average daily dose (Europe)	Median duration of exposure (Europe)	Median average daily dose (North America)	Median duration of exposure (North America)	Median duration of treatment (Study 1 label data)	Median duration of exposure (cutoff Dec. 31, 2015)	Median duration of exposure (patients enrolled in Canada)
CO[C@H]1C[C@@H]2CC[C@@H](C)[C@@](O)(O2)C(=O)C(=O)N2CCCC[C@H]2C(=O)O[C@H]([C@H](C)C[C@@H]2CC[C@@H](OCCO)[C@H](OC)C2)CC(=O)[C@H](C)/C=C(\C)[C@@H](O)[C@@H](OC)C(=O)[C@H](C)C[C@H](C)/C=C/C=C/C=C/1C [everolimus]	9.4 mg	24 wks	9.1 mg	21 wks	8.7 mg	16 wks	4.4 months	4.2 months	3.7 mo
COc1cc2nccc(Oc3ccc(NC(=O)C4(C(=O)Nc5ccc(F)cc5)CC4)cc3)c2cc1OC [cabozantinib]	41.0 mg	56 wks	43.6 mg	33 wks	43.3 mg	39 wks	–	8.3 months	9.2 mo
